Data on four substances can be found in patent publication US20180078656A1 (priority 2015, published 2018).

This data set can be described thus: general procedure: Fmoc solid-phase peptide synthesis; Barlos resin; TBTU/HOBt·H2O/DIPEA. As to conditions: for conjugation yield: conjugation step; for isolated mass / isolated yield: whole synthesis; for isolated yield: scale of the general procedure 1.0 g resin.

For “Azide-TEG-Val-Cit-Gly-Pro-Cryptophycin-55-glycinate”, the conjugation yield is on record as 75%.
The substance Azide-TEG-Val-Cit-Gly-Pro-OH had an isolated mass of 0.05 g and an isolated yield of 70%.
The corresponding values for Maleimide-PEG-Val-Cit-Pro-Gly are 0.61 g and 70%.
Regarding “Maleimide-PEG-Val-Cit-Pro-Gly-Cryptophycin-55-glycinate”, the conjugation yield is given as 60%.
